Results as given in patent US20240309012A1, “ISOQUINOLINE COMPOUND, MANUFACTURING METHOD THEREFOR, AND APPLICATION THEREOF” (priority 2020, published 2024).
For some assays here: For at least one compound, name, drawing or mass did not settle the structure. Some of these results come from one statement about several compounds together.

Experiments:
[1] = test system: 2019 novel coronavirus (SARS-CoV-2); experiment: Inhibition of 2019 novel coronavirus (SARS-CoV-2) replication in Vero E6 cells, virus copy number by qRT-PCR; assay type: cell-based; conditions: for Inhibition of SARS-CoV-2 virus replication (in words): Vero E6 cells; for EC50 as fraction of that of berbamine hydrochloride: relative to berbamine hydrochloride
SARS-CoV-2 = conditions: existing literature; cited from earlier work

## COc1cc2c3cc1Oc1c(OC)c(OC)cc4c1[C@@H](Cc1ccc(C#N)c(c1)Oc1ccc(cc1)C[C@@H]3N(C)CC2)N(C)CC4 [Compound 1]
[1]
  Inhibition of SARS-CoV-2 virus replication (in words): significantly inhibited
  EC50 as fraction of that of berbamine hydrochloride: 1/10

## COc1cc2c3cc1Oc1c(OC)c(OC)cc4c1[C@@H](Cc1ccc(C=O)c(c1)Oc1ccc(cc1)C[C@@H]3N(C)CC2)N(C)CC4 [Compound 2]
[1]
  Inhibition of SARS-CoV-2 virus replication (in words): significantly inhibited
  EC50 as fraction of that of berbamine hydrochloride: 1/10

## COc1cc2c3cc1Oc1c(OC)c(OC)cc4c1[C@@H](Cc1ccc(CO)c(c1)Oc1ccc(cc1)C[C@@H]3N(C)CC2)N(C)CC4 [Compound 3]
[1]
  Inhibition of SARS-CoV-2 virus replication (in words): significantly inhibited
  EC50 as fraction of that of berbamine hydrochloride: 1/10

## COc1cc2c3cc1Oc1c(OC)c(OC)cc4c1[C@@H](Cc1ccc(OC(=O)CCCC[C@H]5CCSS5)c(c1)Oc1ccc(cc1)C[C@@H]3N(C)CC2)N(C)CC4 [Compound 5]
[1]
  Inhibition of SARS-CoV-2 virus replication (in words): significantly inhibited
  EC50 as fraction of that of berbamine hydrochloride: 1/10

## COc1cc2c3cc1Oc1c(OC)c(OC)cc4c1[C@@H](Cc1ccc(OC(=O)CCCC[C@@H]5SC[C@@H]6NC(=O)N[C@@H]65)c(c1)Oc1ccc(cc1)C[C@@H]3N(C)CC2)N(C)CC4 [Compound 6]
[1]
  Inhibition of SARS-CoV-2 virus replication (in words): significantly inhibited
  EC50 as fraction of that of berbamine hydrochloride: 1/10

## COc1ccc2cc1Oc1ccc(cc1)C[C@H]1c3cc(c(OC)cc3CCN1C)Oc1c(OC)c(OC)cc3c1[C@H](C2)N(C)CC3 [tetrandrine]
SARS-CoV-2
  Anti-novel coronavirus effect (in words): stronger than that of berbamine
